Experimental data as given in publication PMC8526591.

Target: Notch intracellular domain (NICD) (human (endogenous in RBE))
Test: co-IP; Coimmunoprecipitation using RBE cells; which protein was precipitated is not told in the text shown; methods in the Supplementary Material

B1: Numb (protein, UniProt P49757 1-651)
chain: MNKLRQSFRRKKDVYVPEASRPHQWQTDEEGVRTGKCSFPVKYLGHVEVDESRGMHICEDAVKRLKAERKFFKGFFGKTGKKAVKAVLWVSADGLRVVDEKTKDLIVDQTIEKVSFCAPDRNFDRAFSYICRDGTTRRWICHCFMAVKDTGERLSHAVGCAFAACLERKQKREKECGVTATFDASRTTFTREGSFRVTTATEQAEREEIMKQMQDAKKAETDKIVVGSSVAPGNTAPSPSSPTSPTSDATTSLEMNNPHAIPRRHAPIEQLARQGSFRGFPALSQKMSPFKRQLSLRINELPSTMQRKTDFPIKNAVPEVEGEAESISSLCSQITNAFSTPEDPFSSAPMTKPVTVVAPQSPTFQANGTDSAFHVLAKPAHTALAPVAMPVRETNPWAHAPDAANKEIAATCSGTEWGQSSGAASPGLFQAGHRRTPSEADRWLEEVSKSVRAQQPQASAAPLQPVLQPPPPTAISQPASPFQGNAFLTSQPVPVGVVPALQPAFVPAQSYPVANGMPYPAPNVPVVGITPSQMVANVFGTAGHPQAAHPHQSPSLVRQQTFPHYEASSATTSPFFKPPAQHLNGSAAFNGVDDGRLASADRHTEVPTGTCPVDPFEAQWAALENKSKQRTNPSPTNPFSSDLQKTFEIEL
For B1, the binding was “binds”.

No constants are given. Whether binding was seen depends on the method and setting. Binding seen in cells or lysates may run through a third protein. A result given as binding can be weak or reduced; the word gives no strength.
